Laboratory results reported in patent US20120082626A1, “USE OF R-BAMBUTEROL AS INHALED MEDICAMENT AND COMBINATION THERAPIES FOR TREATMENT OF RESPIRATORY DISORDERS” (priority 2009, published 2012).
Some results were stated once for a whole list of compounds, not compound by compound.

Experiments:
[1] = system: histamine evoked asthma in conscious guinea-pigs; assay: Time course of anti-asthma effects after oral administration or inhalation; assay type: in vivo
Method: The time course of the anti-asthma effects of R-bambuterol (R-BM) and bambuterol (RS-BM) after administered by oral and by inhalation. Test Methods: same as example 1 except the following:
For orally administration, R-Bambuterol hydrochloride or racemic bambuterol hydrochloride at 4 and 8 mg/kg, and vehicle alone, were administered to the guinea pigs orally via a stomach tube. Exposure of treated animals to aerosol histamine (as above) was done at 1, 4 and 12 hours after R-bambuterol or bambuterol treatment. For each experimental group, there were a total of 8 animals with equal number in sex, and no repeated exposure was made for individual experimental animals.
For inhalation, R-Bambuterol hydrochloride or racemic bambuterol hydrochloride at 0.252 and 0.504 mg/kg, and vehicle alone, were nebulized and administered to the guinea pigs by inhalation. Exposure of drug treated animals to aerosol histamine (as above) was done at 1,4 and 12 hours after drug treatment. For each experimental group, there were a total of 8 animals with equal number in sex, and no repeated exposure was made for individual experimental animals.

[2] = cited from earlier work

CN(C)C(=O)Oc1cc(OC(=O)N(C)C)cc(C(O)CNC(C)(C)C)c1 (racemic) [bambuterol]
duration of the effects ([1]; inhalation): ≤ 24 h | duration of the effects ([1]; oral administration): ≤ 24 h | oral bio-availability [2]: 60-70%
